According to patent publication US8258215B2, “Mixed alkyl-alkylaryl-phenyl phosphite polymer additive” (Dover Chemical Corporation, priority 2010, dated 2012):

Conditions: 60° C., 1st pass material

Substance	YI (Yellowness Index) Color, Gas Fade, 0 hrs.	YI (Yellowness Index) Color, Gas Fade, 24 hrs.	YI (Yellowness Index) Color, Gas Fade, 48 hrs.	YI (Yellowness Index) Color, Gas Fade, 72 hrs.
Mixed C10 alkyl, p-cumylphenyl phosphite [Example 3]	−4.4	−1.4	1.4	5.0
Mixed C12-14 Alkyl, 2,4-dicumylphenyl Phosphite [Example 10]	−5.8	−2.5	1.1	4.1
Mixed C12-14 alkyl, p-cumylphenyl phosphite [Example 2]	−5.6	−2.8	−1.0	1.4
Mixed C12-18 alkyl, p-cumylphenyl phosphite [Example 7]	−5.4	−3.4	−2.1	−1.0
Mixed C16-18 alkyl, p-cumylphenyl phosphite [Example 6]	−3.5	−0.9	0.6	2.4
Mixed C18 alkenyl, p-cumylphenyl phosphite [Example 4]	−5.6	−2.4	0.3	1.9
tris(nonylphenyl)phosphite [TNPP, reference compound]	−3.7	−2.4	−1.2	0.7
